Read-outs that look alike come from different tables or passages of the source. No constants are given. Whether binding was seen depends on the method and setting. In cells and extracts the contact can be indirect. Some results given as binding are weak or reduced against the parent protein; the word gives no strength.
T1: FOXA2 (human (endogenous in primary human hepatocytes and HepaRG cells)) (UniProt Q9Y261)
T1 sequence: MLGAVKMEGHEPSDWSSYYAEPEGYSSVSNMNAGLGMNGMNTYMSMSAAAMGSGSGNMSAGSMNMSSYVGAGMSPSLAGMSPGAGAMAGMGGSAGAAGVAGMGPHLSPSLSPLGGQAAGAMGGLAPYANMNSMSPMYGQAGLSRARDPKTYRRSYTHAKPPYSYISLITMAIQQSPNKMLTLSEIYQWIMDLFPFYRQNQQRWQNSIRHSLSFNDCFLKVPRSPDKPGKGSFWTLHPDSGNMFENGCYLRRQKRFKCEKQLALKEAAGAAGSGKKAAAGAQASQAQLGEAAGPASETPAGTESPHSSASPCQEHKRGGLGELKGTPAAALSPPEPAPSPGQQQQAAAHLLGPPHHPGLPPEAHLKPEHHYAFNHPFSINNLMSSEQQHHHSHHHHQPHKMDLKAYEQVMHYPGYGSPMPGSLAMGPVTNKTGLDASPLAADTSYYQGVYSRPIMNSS

Amino acid sequences for entries named in this document (tags omitted).
UniProt Q15648: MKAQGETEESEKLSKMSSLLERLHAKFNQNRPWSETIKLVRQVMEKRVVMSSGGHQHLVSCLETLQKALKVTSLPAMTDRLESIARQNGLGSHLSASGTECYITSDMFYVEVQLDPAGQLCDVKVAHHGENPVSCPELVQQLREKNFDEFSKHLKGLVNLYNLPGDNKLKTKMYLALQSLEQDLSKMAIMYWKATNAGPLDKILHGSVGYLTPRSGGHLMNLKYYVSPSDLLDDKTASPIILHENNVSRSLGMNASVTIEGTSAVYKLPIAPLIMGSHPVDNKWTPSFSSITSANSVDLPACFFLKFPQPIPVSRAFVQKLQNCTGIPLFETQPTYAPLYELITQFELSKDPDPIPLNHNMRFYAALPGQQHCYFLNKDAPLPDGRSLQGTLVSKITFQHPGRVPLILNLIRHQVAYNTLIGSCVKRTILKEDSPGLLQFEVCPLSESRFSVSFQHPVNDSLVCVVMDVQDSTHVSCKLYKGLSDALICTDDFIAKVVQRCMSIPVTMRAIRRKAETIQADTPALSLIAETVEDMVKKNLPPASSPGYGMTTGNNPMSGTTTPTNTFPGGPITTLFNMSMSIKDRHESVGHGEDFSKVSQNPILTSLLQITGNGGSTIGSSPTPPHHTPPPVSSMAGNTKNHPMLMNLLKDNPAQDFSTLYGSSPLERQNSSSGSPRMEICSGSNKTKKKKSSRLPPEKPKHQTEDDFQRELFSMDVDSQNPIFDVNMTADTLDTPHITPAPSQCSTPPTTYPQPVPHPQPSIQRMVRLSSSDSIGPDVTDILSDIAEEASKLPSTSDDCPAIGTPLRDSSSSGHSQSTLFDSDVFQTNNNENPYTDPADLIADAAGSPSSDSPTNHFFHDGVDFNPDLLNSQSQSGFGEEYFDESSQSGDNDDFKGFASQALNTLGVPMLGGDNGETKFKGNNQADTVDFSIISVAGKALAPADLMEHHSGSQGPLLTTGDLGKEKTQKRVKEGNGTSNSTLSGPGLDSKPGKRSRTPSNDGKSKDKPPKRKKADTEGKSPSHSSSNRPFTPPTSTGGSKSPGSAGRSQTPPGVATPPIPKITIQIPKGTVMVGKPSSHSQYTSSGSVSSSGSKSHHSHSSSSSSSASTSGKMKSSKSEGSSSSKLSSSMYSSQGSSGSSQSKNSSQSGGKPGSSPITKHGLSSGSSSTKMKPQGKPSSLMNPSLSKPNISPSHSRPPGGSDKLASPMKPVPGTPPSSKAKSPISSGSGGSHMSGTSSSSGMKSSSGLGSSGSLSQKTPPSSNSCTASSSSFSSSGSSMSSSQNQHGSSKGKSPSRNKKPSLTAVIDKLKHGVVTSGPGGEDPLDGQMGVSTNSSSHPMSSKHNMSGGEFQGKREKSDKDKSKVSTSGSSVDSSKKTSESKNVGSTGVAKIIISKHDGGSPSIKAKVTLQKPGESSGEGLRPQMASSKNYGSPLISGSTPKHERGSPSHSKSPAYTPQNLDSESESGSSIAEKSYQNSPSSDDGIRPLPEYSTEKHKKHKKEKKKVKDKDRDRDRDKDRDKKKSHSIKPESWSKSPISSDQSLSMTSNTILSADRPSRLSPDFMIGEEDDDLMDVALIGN


Columns and labels:
[1] = biological target: T1, FOXA2 (human (endogenous in primary human hepatocytes and HepaRG cells)); test: co-IP
[2] = biological target: T1, FOXA2 (human (endogenous in primary human hepatocytes and HepaRG cells)); test: co-IP; remark: listed apart in the source

Molecule | binding [1] | binding [2]
MED1 (from UniProt Q15648 1-1581) | no binding | 
HNF4α (protein, UniProt P41235 1-474) MRLSKTLVDMDMADYSAALDPAYTTLEFENVQVLTMGNDTSPSEGTNLNAPNSLGVSALCAICGDRATGKHYGASSCDGCKGFFRRSVRKNHMYSCRFSRQCVVDKDKRNQCRYCRLKKCFRAGMKKEAVQNERDRISTRRSSYEDSSLPSINALLQAEVLSRQITSPVSGINGDIRAKKIASIADVCESMKEQLLVLVEWAKYIPAFCELPLDDQVALLRAHAGEHLLLGATKRSMVFKDVLLLGNDYIVPRHCPELAEMSRVSIRILDELVLPFQELQIDDNEYAYLKAIIFFDPDAKGLSDPGKIKRLRSQVQVSLEDYINDRQYDSRGRFGELLLLLPTLQSITWQMIEQIQFIKLFGMAKIDNLLQEMLLGGSPSDAPHAHHPLHPHLMQEHMGTNVIVANTMPTHLSNGQMCEWPRPRGQAATPETPQPSPPGGSGSEPYKLLPGAVATIVKPLSAIPQPTITKQEVI | binds | binds
